{"source": "patent US20090053138", "key": {"PDGF-AA": {"molecular_target": "PDGF-AA (UniProt P04085)", "assay": "activity in cells", "conditions": "2'-F C and U; inhibits PDGF-AA induced 3T3 proliferation, not very potent; purified recombinant protein; protein details: R&D Systems; dose not given here"}, "PDGF-BB (Homo sapiens) [1]": {"molecular_target": "PDGF-BB (Homo sapiens) (UniProt P01127)", "assay": "activity in cells", "conditions": "purified recombinant protein, protein details: PeproTech; for functional effect of the aptamer: 2'-F C and U, no effect on PDGF-BB induced 3T3 proliferation, dose not given here; for IC50: 3T3 proliferation"}, "VEGF": {"system": "VEGF", "assay": "FP filter", "conditions": "DNA with s1 fU6 fC8 mG9; s2 mG5 mG7 fU10 fC11 mA12; s3 fC5 fC6 fU7 mG8 (f=2'-F, m=2'-OMe); HEG spacers between segments; 3'-inverted dT; recognizes PDGF but not VEGF; purified recombinant protein"}, "PDGF-AA (Homo sapiens)": {"system": "PDGF-AA (Homo sapiens)", "assay": "competition with a labelled probe", "conditions": "DNA with s1 fU6 fC8 mG9; s2 mG5 mG7 fU10 fC11 mA12; s3 fC5 fC6 fU7 mG8 (f=2'-F, m=2'-OMe); HEG spacers between segments; 3'-inverted dT; does not bind PDGF-AA; purified recombinant protein; protein details: PeproTech"}, "PDGF-BB (Homo sapiens) [2]": {"molecular_target": "PDGF-BB (Homo sapiens) (UniProt P01127)", "assay": "competition with a labelled probe", "conditions": "PBS, RT, purified recombinant protein, protein details: PeproTech"}, "PDGF-AB (Homo sapiens)": {"system": "PDGF-AB (Homo sapiens)", "assay": "competition with a labelled probe", "conditions": "PEG-conjugated ARC513 (PEG size per image, not given); 2'-OMe as ARC513; PEG spacers; PBS, BSA, tRNA, RT; purified recombinant protein; protein details: PeproTech; variant of ARC513"}}, "note": "For some of these results: Negatives hold for the conditions tested. For some of these results: Construct, isoform or probe ends are uncertain for at least one entry."}
{"sequence": "GGGAAAAGCGAAUCAUACACAAGACCGGGAACUCGGAUUCUUCACAUGUGGAUGUGAUCAGUAUGCUCCGCCAGAGACCAACCGAGAA [ARX33P1.E5]", "values": [{"measurement": "functional effect of the aptamer", "setting": "PDGF-AA", "value": "active"}, {"measurement": "functional effect of the aptamer", "setting": "PDGF-BB (Homo sapiens) [1]", "value": "not active"}]}
{"sequence": "GGGAAAAGCGAAUCAUACACAAGACCGGAAACUCGGAUUCUUCGCAUGUGGAUGCGAUCAGUAUGCUCCGCCAGAGACCAACCGAGAA [ARX33P1.E10]", "values": [{"measurement": "functional effect of the aptamer", "setting": "PDGF-AA", "value": "active"}, {"measurement": "functional effect of the aptamer", "setting": "PDGF-BB (Homo sapiens) [1]", "value": "not active"}]}
{"sequence": "GGGAAAAGCGAAUCAUACACAAGACCGGGAACUCGGAUUCUUCGCAUGUGGAUGCGAUCAGUAUGCUCCGCCAGAGACCAACCGAGAA [ARX33P1.D2]", "values": [{"measurement": "functional effect of the aptamer", "setting": "PDGF-AA", "value": "active"}, {"measurement": "functional effect of the aptamer", "setting": "PDGF-BB (Homo sapiens) [1]", "value": "not active"}]}
{"sequence": "CAGGCUACGCGTAGAGCAUCATGATCCUG [ARC126]", "values": [{"measurement": "binding result", "setting": "VEGF", "value": "no binding"}, {"measurement": "binding result", "setting": "PDGF-AA (Homo sapiens)", "value": "no binding"}, {"measurement": "Kd", "setting": "PDGF-BB (Homo sapiens) [2]; DNA with s1 fU6 fC8 mG9, s2 mG5 mG7 fU10 fC11 mA12, s3 fC5 fC6 fU7 mG8 (f=2'-F, m=2'-OMe), HEG spacers between segments, 3'-inverted dT, dot blot, 0.2 mg/mL BSA, 0.02 mg/mL tRNA", "value": 0.1, "unit": "nM"}, {"measurement": "IC50", "setting": "PDGF-BB (Homo sapiens) [1]; DNA with s1 fU6 fC8 mG9, s2 mG5 mG7 fU10 fC11 mA12, s3 fC5 fC6 fU7 mG8 (f=2'-F, m=2'-OMe), HEG spacers between segments, 3'-inverted dT, 50 ng/ml PDGF-BB", "value": 3.4, "unit": "nM"}]}
{"sequence": "CCCAGGCTACGCGTAGAGCAUCATGATCCTGGG [ARC594 (AX102)]", "values": [{"measurement": "Kd", "setting": "PDGF-BB (Homo sapiens) [2]; PEG-conjugated ARC513 (PEG size per image, not given), 2'-OMe as ARC513, PEG spacers, BSA, tRNA, variant of ARC513", "value": 0.09, "unit": "nM"}, {"measurement": "Kd", "setting": "PDGF-AB (Homo sapiens)", "value": 0.1, "unit": "nM"}, {"measurement": "IC50", "setting": "PDGF-BB (Homo sapiens) [1]; PEG-conjugated ARC513 (PEG size per image, not given), 2'-OMe as ARC513, PEG spacers, variant of ARC513", "value": 1.95, "unit": "nM"}]}
